The source of these data is the supplement of paper PMC10849652.

Sequences of proteins named here, by UniProt entry; tags and fusion partners are left off. A change or cut given only in a name is not applied to a line headed by its entry.
UniProt P11234: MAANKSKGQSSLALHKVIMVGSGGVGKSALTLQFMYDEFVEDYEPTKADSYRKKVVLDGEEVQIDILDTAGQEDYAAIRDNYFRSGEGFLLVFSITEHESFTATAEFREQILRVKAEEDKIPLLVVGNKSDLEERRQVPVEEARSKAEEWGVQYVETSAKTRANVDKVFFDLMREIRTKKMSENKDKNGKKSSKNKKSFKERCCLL
UniProt Q53H96: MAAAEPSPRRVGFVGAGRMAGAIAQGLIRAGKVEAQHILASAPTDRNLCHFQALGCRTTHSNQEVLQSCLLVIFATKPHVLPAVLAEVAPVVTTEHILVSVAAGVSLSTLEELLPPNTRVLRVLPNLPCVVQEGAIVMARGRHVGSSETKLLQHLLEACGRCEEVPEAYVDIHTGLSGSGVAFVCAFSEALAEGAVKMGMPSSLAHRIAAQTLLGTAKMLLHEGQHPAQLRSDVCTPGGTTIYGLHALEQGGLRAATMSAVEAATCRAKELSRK
UniProt Q13636: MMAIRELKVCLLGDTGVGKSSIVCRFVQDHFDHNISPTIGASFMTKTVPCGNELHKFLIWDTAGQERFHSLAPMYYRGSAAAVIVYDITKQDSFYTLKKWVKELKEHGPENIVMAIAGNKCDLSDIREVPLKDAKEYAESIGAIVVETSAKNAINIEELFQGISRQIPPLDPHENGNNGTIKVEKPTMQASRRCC
UniProt P11233: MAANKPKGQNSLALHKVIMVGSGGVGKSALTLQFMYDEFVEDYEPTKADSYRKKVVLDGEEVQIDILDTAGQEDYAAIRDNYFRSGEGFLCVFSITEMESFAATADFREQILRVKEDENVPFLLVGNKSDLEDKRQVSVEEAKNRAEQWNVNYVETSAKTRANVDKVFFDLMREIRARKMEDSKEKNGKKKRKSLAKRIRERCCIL
UniProt P20339: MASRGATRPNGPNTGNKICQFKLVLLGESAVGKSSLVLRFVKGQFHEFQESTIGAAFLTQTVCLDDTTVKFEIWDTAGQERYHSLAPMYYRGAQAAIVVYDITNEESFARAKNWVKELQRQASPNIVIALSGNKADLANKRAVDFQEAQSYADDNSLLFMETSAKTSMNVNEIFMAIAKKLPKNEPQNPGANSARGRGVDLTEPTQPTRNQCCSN
UniProt P51149, whole entry, looked up: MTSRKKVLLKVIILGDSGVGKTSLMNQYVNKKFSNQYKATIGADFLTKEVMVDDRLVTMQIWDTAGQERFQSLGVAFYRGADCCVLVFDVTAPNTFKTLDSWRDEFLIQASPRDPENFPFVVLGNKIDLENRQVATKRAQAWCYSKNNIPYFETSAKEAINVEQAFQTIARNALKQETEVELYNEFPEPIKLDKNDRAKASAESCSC

Test in all cases: log2 fold change, soluble protein after heating vs DMSO (PISA); higher = thermal stabilisation; K562 lysate, 10 uM; active = over 0.2 and 3.5 SD of the protein, either way, in both replicates (recomputed)
Compound in assay [1]: CN1CC[C@H](c2c(O)cc(O)c3c(=O)cc(-c4ccccc4Cl)oc23)[C@H](O)C1 [alvocidib]
The essentials: (§1)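 A 30 min treatment with 10 μM compound was applied to crude K562 extract at 1 mg/mL protein in PBS pH 7.4 with 1 mM MgCl2. Heating for 3 min spanned 48°C-58°C, after which aliquots were pooled, adjusted to 0.5% NP-40 at 4°C and spun at 21,000xg for 90 min. TMTpro 16plex LC-MS/MS of the supernatant, with channel sums equalised, gave values recorded as log-two fold change in thermal stability against solvent controls, from duplicates.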

Compound in assay [2]: CN1CCc2c(c3ccccc3n2Cc2ccc(C(=O)NO)cc2)C1 [Tubastatin A]
The method in brief:
as §1

Compound in assay [3]: CNC(=O)C1=CC=CC=C1NC2=NC(=NC=C2Cl)NC3=C(C=C(C=C3)N4CCOCC4)OC
The method in brief: as §1

Compound in assay [4]: CNC(=O)c1ccc(Nc2ncc(C(F)(F)F)c(NCc3nccnc3N(C)S(C)(=O)=O)n2)cc1 [defactinib]
The essentials:
as §1

Compound in assay [5]: CNc1nc(-c2ccc3c(N)n[nH]c3c2)cc(N2C[C@@H](C(=O)NC3CCCCC3)CC[C@H]2C)n1
The essentials: as §1

Compound in assay [6]: COC(=O)N[C@@H](C)CNc1nccc(-c2cn(C(C)C)nc2-c2cc(Cl)cc(NS(C)(=O)=O)c2F)n1 [encorafenib]
The essentials: as §1

Compound in assay [7]: COC(=O)[C@H](CCSC)NC(=O)C1=C(C=C(C=C1)NC[C@H](CS)N)C2=CC=CC=C2
The essentials: as §1

Compound in assay [8]: COc1cc(Nc2ncc3c(n2)-c2ccc(Cl)cc2C(c2c(F)cccc2OC)=NC3)ccc1C(=O)O [alisertib]
The method in brief: as §1

Compound in assay [9]: COc1cc2nc(-c3cc(F)ccc3O)nc(N[C@@H]3CNC[C@H]3C(C)(C)O)c2cc1OC
The essentials: as §1

Compound in assay [10]: COc1cc2ncnc(Nc3ccc(F)c(Cl)c3)c2cc1OCCCN1CCOCC1 [gefitinib]
The method in brief:
as §1

Compound in assay [11]: CS(=O)(=O)CCNCc1ccc(-c2ccc3ncnc(Nc4ccc(OCc5cccc(F)c5)c(Cl)c4)c3c2)o1 [lapatinib]
The essentials: as §1

Compound in assay [12]: CS(=O)(=O)N1CCN(Cc2cc3nc(-c4cccc5[nH]ncc45)nc(N4CCOCC4)c3s2)CC1 [pictilisib]
The method in brief: as §1

Compound in assay [13]: C[C@@H](Oc1cc(-c2cnn(C3CCNCC3)c2)cnc1N)c1c(Cl)ccc(F)c1Cl [crizotinib]
The essentials: as §1

Compound in assay [14]: C[C@H](C1=CC=C(C=C1)C(=O)NC2=C3C=CNC3=NC=C2)N
The essentials:
as §1

Compound in assay [15]: C[C@H](Nc1ncnc2nc[nH]c12)c1cc2cccc(Cl)c2c(=O)n1-c1ccccc1 [duvelisib]
The essentials:
as §1

Compound in assay [16]: Cc1cc(Nc2cc(CN3CCOCC3)c3nc(C)c(Cc4ccc(Cl)cc4F)n3n2)n[nH]1 [gandotinib]
The method in brief: as §1

Compound in assay [17]: Cc1cc(Nc2cc(N3CCN(C)CC3)nc(Sc3ccc(NC(=O)C4CC4)cc3)n2)n[nH]1 [tozasertib]
The essentials:
as §1

Compound in assay [18]: Cc1ccc(-n2nc(C(C)(C)C)cc2NC(=O)Nc2ccc(OCCN3CCOCC3)c3ccccc23)cc1 [doramapimod]
The essentials: as §1

Compound in assay [19]: Cc1ccc(NC(=O)c2ccc(CN3CC[C@H](N(C)C)C3)c(C(F)(F)F)c2)cc1Nc1nccc(-c2cncnc2)n1 [bafetinib]
The essentials:
as §1

Compound in assay [20]: Cc1cccc(CC(=O)N2CCc3c2ccc(-c2cn(C)c4ncnc(N)c24)c3F)n1
The essentials: as §1

Some of the results follow.

On to RALB isoform 2 (UniProt P11234), for which the log2 fold change in [1] is inactive: -0.059; in [2], inactive: 0.029; in [3] it was inactive: -0.023; in assay [4], inactive: 0.025; in [5] it was inactive: -0.02; in [6] it was inactive: 0.039. For the same target, the log2 fold change in assay [7] is inactive: -0.033; in assay [8] it was inactive: 0.01; in assay [9], inactive: 0.013; in [10] it was inactive: 0.03; in assay [11] it was inactive: -0.05; in [12] it was inactive: -0.089. Further, the log2 fold change is inactive: 0.031 in assay [13]; inactive: -0.164 in [14]; inactive: 0.016 in [15]; inactive: 0.095 in [16]; inactive: 0.074 in assay [17]; inactive: 0.009 in assay [18]. In addition, the log2 fold change in assay [19] was inactive: -0.002; in [20], inactive: 0.144.
Turning to PYCR3 (UniProt Q53H96), the log2 fold change is inactive: -0.048 in assay [1]; inactive: -0.006 in assay [2]; inactive: -0.015 in assay [3]; inactive: -0.023 in assay [4]; inactive: 0.049 in assay [5]; inactive: 0.025 in [6]. Moreover, the log2 fold change was inactive: -0.124 in [7]; inactive: -0.084 in [8]; inactive: 0.011 in assay [9]; inactive: -0.014 in [10]; inactive: -0.027 in [11]; inactive: -0.071 in assay [12]. Moreover, the log2 fold change was inactive: -0.027 in [13]; inactive: 0.021 in assay [14]; inactive: 0.021 in assay [15]; inactive: 0.028 in [16]; inactive: 0.011 in assay [17]; inactive: 0.042 in assay [18]. The results for the log2 fold change in [19] and in assay [20] were inactive: -0.023 and inactive: -0.019, respectively.
In the case of RAB31 (UniProt Q13636), the log2 fold change is inactive: -0.011 in [1]; inactive: 0.047 in assay [2]; inactive: 0 in assay [3]; inactive: 0.037 in [4]; inactive: 0.038 in assay [5]; inactive: -0.001 in assay [6]. In addition, the log2 fold change in assay [7] was inactive: -0.026; in [8], inactive: -0.013; in assay [9] it was inactive: 0.083; in [10], inactive: -0.021; in assay [11] it was inactive: -0.001; in [12], inactive: -0.006. The log2 fold change in [13] was inactive: 0.004; in [14], inactive: -0.045; in assay [15], inactive: -0.058; in assay [16] it was inactive: 0.009; in assay [17] it was inactive: 0.024; in [18] it was inactive: -0.003. Further, the log2 fold change in [19] is inactive: -0.014; in assay [20], inactive: 0.04.
Take RALA (UniProt P11233): the log2 fold change in [1] was inactive: -0.164; in [2] it was inactive: 0.044; in assay [3], inactive: 0.016; in assay [4], inactive: -0.057; in assay [5], inactive: 0.056; in [6] it was inactive: 0.03. For the same target, the log2 fold change is inactive: -0.102 in assay [7]; inactive: 0.009 in [8]; inactive: 0.01 in assay [9]; inactive: 0.023 in assay [10]; inactive: -0.017 in assay [11]; inactive: -0.022 in [12]. For the same target, the log2 fold change in assay [13] was inactive: 0.012; in assay [14], active: -0.3; in [15], inactive: 0; in assay [16], inactive: 0.158; in assay [17], inactive: -0.009; in assay [18], inactive: 0.014. Moreover, the figures for the log2 fold change in assay [19] and in [20] were inactive: 0.029 and active: 0.217, respectively.
RAPGEF2, A0A2R8YGD3: the log2 fold change is inactive: -0.241 in assay [1]; active: 0.236 in [2]; inactive: 0.017 in [3]; inactive: 0.119 in [4]; inactive: 0.025 in assay [5]; inactive: 0.017 in assay [6]. Moreover, the log2 fold change in [7] is inactive: 0.021; in [8], inactive: 0.007; in assay [9], inactive: -0.017; in [10], inactive: -0.042; in [11], inactive: -0.014; in assay [12] it was inactive: 0.015. In addition, the log2 fold change in assay [13] is inactive: 0.024; in [14], active: -0.431; in assay [15], inactive: 0.018; in [16] it was inactive: 0.038; in assay [17], inactive: 0.014; in [18], inactive: -0.039. Moreover, the log2 fold change is inactive: -0.171 in assay [19] and inactive: 0.266 in assay [20].
In the case of RAB5A (UniProt P20339), the log2 fold change in assay [1] is inactive: 0.004; in [2], inactive: 0.016; in [3] it was inactive: -0.015; in assay [4], inactive: -0.021; in [5], inactive: 0.071; in [6] it was inactive: 0.074. The log2 fold change was inactive: -0.1 in [7]; inactive: -0.024 in assay [8]; inactive: 0.055 in [9]; inactive: -0.008 in assay [10]; inactive: 0 in assay [11]; inactive: -0.073 in assay [12]. Moreover, the log2 fold change is inactive: -0.047 in assay [13]; inactive: 0.018 in assay [14]; inactive: 0.017 in assay [15]; inactive: -0.015 in [16]; inactive: 0.051 in assay [17]; inactive: -0.03 in [18]. The results for the log2 fold change in assay [19] and in [20] were inactive: -0.044 and inactive: 0.023, respectively.
For RAB7A (UniProt P51149), the log2 fold change in assay [1] was inactive: -0.014; in assay [2], inactive: 0.088; in [3], inactive: -0.035; in assay [4], inactive: -0.003; in assay [5] it was inactive: -0.005; in [6] it was inactive: 0.005. Further, the log2 fold change in assay [7] is inactive: -0.021; in [8], inactive: 0.014; in [9] it was inactive: 0.049; in assay [10], inactive: 0.032; in assay [11] it was inactive: 0.02; in assay [12] it was inactive: -0.005. In addition, the log2 fold change in assay [13] is inactive: 0.04; in [14] it was inactive: -0.028; in [15] it was inactive: 0.034; in [16], inactive: -0.035; in [17] it was inactive: 0.026; in [18] it was inactive: -0.022. In addition, the log2 fold change in assay [19] is inactive: 0.083; in [20], inactive: 0.046.
